This series has as its system mitochondrial proteins of HEK293 T-REx cells. Briefly: Mitochondrial proteome profiling for WT and CLPP^−/− (fold change CLPP^−/−/WT). Details: species or system human. The following applies: fold change of mitochondrial protein detected in CLPP knockout compared to WT HEK293 T-REx cells; MaxQuant total peptide ion intensity.

B1: HIBADH (protein, UniProt P31937 37-336, looked up)
3-hydroxyisobutyrate …: ASKTPVGFIGLGNMGNPMAKNLMKHGYPLIIYDVFPDACKEFQDAGEQVVSSPADVAEKADRIITMLPTSINAIEAYSGANGILKKVKKGSLLIDSSTIDPAVSKELAKEVEKMGAVFMDAPVSGGVGAARSGNLTFMVGGVEDEFAAAQELLGCMGSNVVYCGAVGTGQAAKICNNMLLAISMIGTAEAMNLGIRLGLDPKLLAKILNMSSGRCWSSDTYNPVPGVMDGVPSANNYQGGFGTTLMAKDLGLAQDSATSTKSPILLGSLAHQIYRMMCAKGYSKKDFSSVFQFLREEETF
With B1, the “Avg. fold change (CLPP KO/WT)” value came out at 1.04.

B2: GLRX5 (protein, UniProt Q86SX6 32-157, looked up)
Glutaredoxin-related protein …: AGSGAGGGGSAEQLDALVKKDKVVVFLKGTPEQPQCGFSNAVVQILRLHGVRDYAAYNVLDDPELRQGIKDYSNWPTIPQVYLNGEFVGGCDILLQMHQNGDLVEELKKLGIHSALLDEKKDQDSK
For B2, the “Avg. fold change (CLPP KO/WT)” value turned out to be 1.46.

B3: GRPEL1 (protein, UniProt Q9HAV7 28-217, looked up)
GrpE protein homolog 1, …: CTATKQKNSGQNLEEDMGQSEQKADPPATEKTLLEEKVKLEEQLKETVEKYKRALADTENLRQRSQKLVEEAKLYGIQAFCKDLLEVADVLEKATQCVPKEEIKDDNPHLKNLYEGLVMTEVQIQKVFTKHGLLKLNPVGAKFDPYEHEALFHTPVEGKEPGTVALVSKVGYKLHGRTLRPALVGVVKEA
For B3, the “Avg. fold change (CLPP KO/WT)” value worked out at 1.21.

B4: GPD2 (protein, UniProt P43304 43-727, looked up)
Glycerol-3-phosphate …: ADCISEPVNREPPSREAQLLTLQNTSEFDILVIGGGATGSGCALDAVTRGLKTALVERDDFSSGTSSRSTKLIHGGVRYLQKAIMKLDIEQYRMVKEALHERANLLEIAPHLSAPLPIMLPVYKWWQLPYYWVGIKLYDLVAGSNCLKSSYVLSKSRALEHFPMLQKDKLVGAIVYYDGQHNDARMNLAIALTAARYGAATANYMEVVSLLKKTDPQTGKVRVSGARCKDVLTGQEFDVRAKCVINATGPFTDSVRKMDDKDAAAICQPSAGVHIVMPGYYSPESMGLLDPATSDGRVIFFLPWQKMTIAGTTDTPTDVTHHPIPSEEDINFILNEVRNYLSCDVEVRRGDVLAAWSGIRPLVTDPKSADTQSISRNHVVDISESGLITIAGGKWTTYRSMAEDTINAAVKTHNLKAGPSRTVGLFLQGGKDWSPTLYIRLVQDYGLESEVAQHLAATYGDKAFEVAKMASVTGKRWPIVGVRLVSEFPYIEAEVKYGIKEYACTAVDMISRRTRLAFLNVQAAEEALPRIVELMGRELNWDDYKKQEQLETARKFLYYEMGYKSRSEQLTDRSEISLLPSDIDRYKKRFHKFDADQKGFITIVDVQRVLESINVQMDENTLHEILNEVDLNKNGQVELNEFLQLMSAIQKGRVSGSRLAILMKTAEENLDRRVPIPVDRSCGGL
B4: the “Avg. fold change (CLPP KO/WT)” value is on record as −1.31.

B5: GSTK1 (protein, UniProt Q9Y2Q3 1-226, looked up)
Glutathione S-transferase …: MGPLPRTVELFYDVLSPYSWLGFEILCRYQNIWNINLQLRPSLITGIMKDSGNKPPGLLPRKGLYMANDLKLLRHHLQIPIHFPKDFLSVMLEKGSLSAMRFLTAVNLEHPEMLEKASRELWMRVWSRNEDITEPQSILAAAEKAGMSAEQAQGLLEKIATPKVKNQLKETTEAACRYGAFGLPITVAHVDGQTHMLFGSDRMELLAHLLGEKWMGPIPPAVNARL
As to B5, the “Avg. fold change (CLPP KO/WT)” value was determined as 1.29.

B6: GCDH (protein, UniProt Q92947 45-438, looked up)
Glutaryl-CoA dehydrogenase, …: RPEFDWQDPLVLEEQLTTDEILIRDTFRTYCQERLMPRILLANRNEVFHREIISEMGELGVLGPTIKGYGCAGVSSVAYGLLARELERVDSGYRSAMSVQSSLVMHPIYAYGSEEQRQKYLPQLAKGELLGCFGLTEPNSGSDPSSMETRAHYNSSNKSYTLNGTKTWITNSPMADLFVVWARCEDGCIRGFLLEKGMRGLSAPRIQGKFSLRASATGMIIMDGVEVPEENVLPGASSLGGPFGCLNNARYGIAWGVLGASEFCLHTARQYALDRMQFGVPLARNQLIQKKLADMLTEITLGLHACLQLGRLKDQDKAAPEMVSLLKRNNCGKALDIARQARDMLGGNGISDEYHVIRHAMNLEAVNTYEGTHDIHALILGRAITGIQAFTASK
Consider B6, for which the “Avg. fold change (CLPP KO/WT)” value was found to be 1.16.

B7: HSPD1 (protein, UniProt P10809 27-573, looked up)
60 kDa heat shock protein, …: AKDVKFGADARALMLQGVDLLADAVAVTMGPKGRTVIIEQSWGSPKVTKDGVTVAKSIDLKDKYKNIGAKLVQDVANNTNEEAGDGTTTATVLARSIAKEGFEKISKGANPVEIRRGVMLAVDAVIAELKKQSKPVTTPEEIAQVATISANGDKEIGNIISDAMKKVGRKGVITVKDGKTLNDELEIIEGMKFDRGYISPYFINTSKGQKCEFQDAYVLLSEKKISSIQSIVPALEIANAHRKPLVIIAEDVDGEALSTLVLNRLKVGLQVVAVKAPGFGDNRKNQLKDMAIATGGAVFGEEGLTLNLEDVQPHDLGKVGEVIVTKDDAMLLKGKGDKAQIEKRIQEIIEQLDVTTSEYEKEKLNERLAKLSDGVAVLKVGGTSDVEVNEKKDRVTDALNATRAAVEEGIVLGGGCALLRCIPALDSLTPANEDQKIGIEIIKRTLKIPAMTIAKNAGVEGSLIVEKIMQSSSEVGYDAMAGDFVNMVEKGIIDPTKVVRTALLDAAGVASLLTTAEVVVTEIPKEEKDPGMGAMGGMGGGMGGGMF
For the molecule B7, the “Avg. fold change (CLPP KO/WT)” value is on record as 1.21.

The values are drawn from patent US20210171576A1, “METHODS FOR TREATING CANCER WITH ACYLDEPSIPEPTIDE ANALOGS” (priority 2018, published 2021).
